Measurements from patent US12492196B2, “Thienyloxazolones and analogues” (Bayer Aktiengesellschaft, priority 2019, dated 2025).
Some results were stated once for a whole list of compounds, not compound by compound. At least one structure is not confirmed: it was looked up by name or label, or the drawing left a doubt.

Key:
[1] = tested on: salicylate responsive promoter sequence of the PR1 (pathogenesis-related protein I) gene (AT2G14610); test: Induction of defense gene expression in Arabidopsis thaliana (PR1 promoter-GFP reporter plants); type: in vivo; settings: 3rd day after spraying, mock treated leaves set as 1.00
Method: Arabidopsis thaliana reporter plants containing the coding sequence of a green fluorescent protein (GFP) linked to the salicylate responsive promoter sequence of the PR1 (pathogenesis-related protein I) gene (AT2G14610) were grown for five days and then sprayed with compounds. On the 3rd day after spraying, plant fluorescence was assessed with a MacroFluo instrument from Leica Microsystems (Wetzlar, Germany). Fluorescences were quantified with the Meta-Morph Microscopy Automation & Image Analysis Software (Molecular Devices, Sunnyvale, Calif., United States).
Background fluorescence in mock treated leaves was set as 1.00.

[2] = tested on: Colletotrichum lindemuthianum; test: Colletotrichum lindemuthianum in vitro cell test; type: cell-based; settings: 20 ppm of active ingredient; 6 days incubation
Method: Solvent: DMSO Culture medium: 14.6 g anhydrous D-glucose (VWR), 7.1 g Mycological Peptone (Oxoid), 1.4 g granulated Yeast Extract (Merck), QSP 1 liter Inoculum: spores suspension Fungicides were solubilized in DMSO and the solution used to prepare the required range of concentrations. The final concentration of DMSO used in the assay was ≤1%. A spore suspension of C. lindemuthianum was prepared and diluted to the desired spore density. Fungicides were evaluated for their ability to inhibit spores germination and mycelium growth in liquid culture assay. The compounds were added in the desired concentration to the culture medium with spores. After 6 days incubation, fungi-toxicity of compounds was determined by spectrometric measurement of mycelium growth. Inhibition of fungal growth was determined by comparing the absorbance values in wells containing the fungicides with the absorbance in control wells without fungicides.

[3] = tested on: Xanthomonas campestris pv. campestris; test: Xanthomonas campestris pv. campestris in vitro cell test; type: cell-based; settings: 20 ppm of active ingredient; 24 h incubation
Method: Solvent: DMSO Culture medium: LB broth medium (Luria Broth Miller) Sigma Inoculum: bacteria suspension Compounds were solubilized in DMSO and the solution used to prepare the required range of concentrations. The final concentration of DMSO used in the assay was ≤1%. Inoculum was prepared from a pre-culture of bacteria grown in liquid medium and diluted to the desired optical density (OD). Compounds were evaluated for their ability to inhibit bacteria growth in liquid culture assay. The compounds were added in the desired concentrations to culture medium containing the bacteria suspension. After 24 h of incubation, the efficacy of compounds was determined by spectrometric measurement of bacteria growth. Inhibition was determined by comparing the absorbance values in wells containing the compounds with the absorbance in control wells without active ingredients.

| Compound | relative fluorescence value ([1]; 300 ppm) | efficacy (direct activity, inhibition of fungal growth) [2] | efficacy (direct activity, inhibition of bacteria growth) [3] | relative fluorescence value ([1]; 75 ppm of compound) |
| --- | --- | --- | --- | --- |
| O=C1SC(c2sc(Br)c(Br)c2Br)=NC12CC2 [I.04] | above 2 | ≤ 30% | ≤ 30% |  |
| N#Cc1sc(C2=NC3(CC3)C(=O)O2)cc1Br [I.05] |  | ≤ 30% | ≤ 30% |  |
| Cc1c(C2=NC3(CC3)C(=O)S2)sc(Cl)c1Cl [I.15] | above 2 | ≤ 30% | ≤ 30% |  |
| Cc1c(C2=NC3(CC3)C(=O)O2)sc(C#N)c1Cl [I.07] | above 2 | ≤ 30% | ≤ 30% | above 2 |
| O=C1SC(c2sc(Br)c(Br)c2I)=NC12CC2 [I.14] |  | ≤ 30% | ≤ 30% |  |
